Test: general procedure: solution-phase peptide synthesis; EDC hydrochloride/HOBT/DMAP
Conditions: late stage modification step

(1S,9S)-1-(glycyl-glycyl-L-phenyl-alanyl-glycylamino)-9-ethyl-5-fluoro-2,3-dihydro-9-hydroxy-4-methyl-1H,12H-benzo[de]pyrano[3′,4′:6,7] indolizino[1,2-b]quinoline-10,13(9H,15H)-dione
step yield: 86%
